No constants are given. Whether binding was seen depends on the method and setting. In cells and extracts the contact can be indirect.
Target: T1, wild-type ataxin-2 (ATXN2) (mouse (endogenous in mouse cerebellum)) (UniProt O70305)
T1 sequence: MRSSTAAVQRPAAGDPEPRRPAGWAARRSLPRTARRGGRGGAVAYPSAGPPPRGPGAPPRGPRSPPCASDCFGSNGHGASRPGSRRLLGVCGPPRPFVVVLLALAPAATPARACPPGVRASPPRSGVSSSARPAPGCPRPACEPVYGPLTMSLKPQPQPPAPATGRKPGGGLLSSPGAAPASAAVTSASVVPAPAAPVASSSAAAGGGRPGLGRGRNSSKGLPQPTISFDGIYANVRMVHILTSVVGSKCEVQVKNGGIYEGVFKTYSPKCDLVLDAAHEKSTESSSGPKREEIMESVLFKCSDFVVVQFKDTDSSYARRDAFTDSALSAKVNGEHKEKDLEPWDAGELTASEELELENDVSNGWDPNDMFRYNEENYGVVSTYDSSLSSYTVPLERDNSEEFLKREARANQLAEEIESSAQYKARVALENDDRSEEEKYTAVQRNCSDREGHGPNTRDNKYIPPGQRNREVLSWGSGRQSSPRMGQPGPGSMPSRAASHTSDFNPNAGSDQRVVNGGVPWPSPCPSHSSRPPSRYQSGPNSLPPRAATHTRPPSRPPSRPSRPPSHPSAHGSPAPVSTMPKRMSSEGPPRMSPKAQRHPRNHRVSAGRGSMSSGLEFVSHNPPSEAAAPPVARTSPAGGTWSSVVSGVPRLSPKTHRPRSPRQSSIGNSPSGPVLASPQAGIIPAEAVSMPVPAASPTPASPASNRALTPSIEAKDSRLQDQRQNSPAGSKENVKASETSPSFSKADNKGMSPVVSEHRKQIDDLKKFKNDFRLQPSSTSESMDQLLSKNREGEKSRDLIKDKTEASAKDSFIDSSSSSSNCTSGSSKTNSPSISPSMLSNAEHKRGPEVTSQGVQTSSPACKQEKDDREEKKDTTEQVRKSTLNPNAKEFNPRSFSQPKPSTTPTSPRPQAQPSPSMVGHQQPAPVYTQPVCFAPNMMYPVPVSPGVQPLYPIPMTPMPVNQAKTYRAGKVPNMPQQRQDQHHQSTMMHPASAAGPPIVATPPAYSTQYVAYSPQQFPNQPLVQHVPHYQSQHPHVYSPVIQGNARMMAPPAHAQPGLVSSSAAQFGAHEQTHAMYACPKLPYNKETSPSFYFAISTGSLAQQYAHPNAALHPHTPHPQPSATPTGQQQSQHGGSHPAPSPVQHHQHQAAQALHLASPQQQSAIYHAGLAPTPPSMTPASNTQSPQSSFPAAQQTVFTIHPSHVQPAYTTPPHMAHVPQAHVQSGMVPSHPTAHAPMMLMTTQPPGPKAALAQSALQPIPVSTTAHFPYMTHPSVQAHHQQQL
Assay: co-IP; endogenous proteins in mouse cerebellum extract (250 ug, NP40 buffer: 20 mM Tris-HCl pH 8.0, 137 mM NaCl, 1 % glycerol, 0.1 % Igepal CA-630, 2 mM EDTA); pulling with anti-ATXN2 or anti-ITPR1 on Protein A agarose beads, 4 °C overnight; controls beads only, unspecific IgG, Atxn2 KO tissue; immunoblots detecting ITPR1

By UniProt entry, the sequences of proteins in these tests, tags left out.
UniProt P11881: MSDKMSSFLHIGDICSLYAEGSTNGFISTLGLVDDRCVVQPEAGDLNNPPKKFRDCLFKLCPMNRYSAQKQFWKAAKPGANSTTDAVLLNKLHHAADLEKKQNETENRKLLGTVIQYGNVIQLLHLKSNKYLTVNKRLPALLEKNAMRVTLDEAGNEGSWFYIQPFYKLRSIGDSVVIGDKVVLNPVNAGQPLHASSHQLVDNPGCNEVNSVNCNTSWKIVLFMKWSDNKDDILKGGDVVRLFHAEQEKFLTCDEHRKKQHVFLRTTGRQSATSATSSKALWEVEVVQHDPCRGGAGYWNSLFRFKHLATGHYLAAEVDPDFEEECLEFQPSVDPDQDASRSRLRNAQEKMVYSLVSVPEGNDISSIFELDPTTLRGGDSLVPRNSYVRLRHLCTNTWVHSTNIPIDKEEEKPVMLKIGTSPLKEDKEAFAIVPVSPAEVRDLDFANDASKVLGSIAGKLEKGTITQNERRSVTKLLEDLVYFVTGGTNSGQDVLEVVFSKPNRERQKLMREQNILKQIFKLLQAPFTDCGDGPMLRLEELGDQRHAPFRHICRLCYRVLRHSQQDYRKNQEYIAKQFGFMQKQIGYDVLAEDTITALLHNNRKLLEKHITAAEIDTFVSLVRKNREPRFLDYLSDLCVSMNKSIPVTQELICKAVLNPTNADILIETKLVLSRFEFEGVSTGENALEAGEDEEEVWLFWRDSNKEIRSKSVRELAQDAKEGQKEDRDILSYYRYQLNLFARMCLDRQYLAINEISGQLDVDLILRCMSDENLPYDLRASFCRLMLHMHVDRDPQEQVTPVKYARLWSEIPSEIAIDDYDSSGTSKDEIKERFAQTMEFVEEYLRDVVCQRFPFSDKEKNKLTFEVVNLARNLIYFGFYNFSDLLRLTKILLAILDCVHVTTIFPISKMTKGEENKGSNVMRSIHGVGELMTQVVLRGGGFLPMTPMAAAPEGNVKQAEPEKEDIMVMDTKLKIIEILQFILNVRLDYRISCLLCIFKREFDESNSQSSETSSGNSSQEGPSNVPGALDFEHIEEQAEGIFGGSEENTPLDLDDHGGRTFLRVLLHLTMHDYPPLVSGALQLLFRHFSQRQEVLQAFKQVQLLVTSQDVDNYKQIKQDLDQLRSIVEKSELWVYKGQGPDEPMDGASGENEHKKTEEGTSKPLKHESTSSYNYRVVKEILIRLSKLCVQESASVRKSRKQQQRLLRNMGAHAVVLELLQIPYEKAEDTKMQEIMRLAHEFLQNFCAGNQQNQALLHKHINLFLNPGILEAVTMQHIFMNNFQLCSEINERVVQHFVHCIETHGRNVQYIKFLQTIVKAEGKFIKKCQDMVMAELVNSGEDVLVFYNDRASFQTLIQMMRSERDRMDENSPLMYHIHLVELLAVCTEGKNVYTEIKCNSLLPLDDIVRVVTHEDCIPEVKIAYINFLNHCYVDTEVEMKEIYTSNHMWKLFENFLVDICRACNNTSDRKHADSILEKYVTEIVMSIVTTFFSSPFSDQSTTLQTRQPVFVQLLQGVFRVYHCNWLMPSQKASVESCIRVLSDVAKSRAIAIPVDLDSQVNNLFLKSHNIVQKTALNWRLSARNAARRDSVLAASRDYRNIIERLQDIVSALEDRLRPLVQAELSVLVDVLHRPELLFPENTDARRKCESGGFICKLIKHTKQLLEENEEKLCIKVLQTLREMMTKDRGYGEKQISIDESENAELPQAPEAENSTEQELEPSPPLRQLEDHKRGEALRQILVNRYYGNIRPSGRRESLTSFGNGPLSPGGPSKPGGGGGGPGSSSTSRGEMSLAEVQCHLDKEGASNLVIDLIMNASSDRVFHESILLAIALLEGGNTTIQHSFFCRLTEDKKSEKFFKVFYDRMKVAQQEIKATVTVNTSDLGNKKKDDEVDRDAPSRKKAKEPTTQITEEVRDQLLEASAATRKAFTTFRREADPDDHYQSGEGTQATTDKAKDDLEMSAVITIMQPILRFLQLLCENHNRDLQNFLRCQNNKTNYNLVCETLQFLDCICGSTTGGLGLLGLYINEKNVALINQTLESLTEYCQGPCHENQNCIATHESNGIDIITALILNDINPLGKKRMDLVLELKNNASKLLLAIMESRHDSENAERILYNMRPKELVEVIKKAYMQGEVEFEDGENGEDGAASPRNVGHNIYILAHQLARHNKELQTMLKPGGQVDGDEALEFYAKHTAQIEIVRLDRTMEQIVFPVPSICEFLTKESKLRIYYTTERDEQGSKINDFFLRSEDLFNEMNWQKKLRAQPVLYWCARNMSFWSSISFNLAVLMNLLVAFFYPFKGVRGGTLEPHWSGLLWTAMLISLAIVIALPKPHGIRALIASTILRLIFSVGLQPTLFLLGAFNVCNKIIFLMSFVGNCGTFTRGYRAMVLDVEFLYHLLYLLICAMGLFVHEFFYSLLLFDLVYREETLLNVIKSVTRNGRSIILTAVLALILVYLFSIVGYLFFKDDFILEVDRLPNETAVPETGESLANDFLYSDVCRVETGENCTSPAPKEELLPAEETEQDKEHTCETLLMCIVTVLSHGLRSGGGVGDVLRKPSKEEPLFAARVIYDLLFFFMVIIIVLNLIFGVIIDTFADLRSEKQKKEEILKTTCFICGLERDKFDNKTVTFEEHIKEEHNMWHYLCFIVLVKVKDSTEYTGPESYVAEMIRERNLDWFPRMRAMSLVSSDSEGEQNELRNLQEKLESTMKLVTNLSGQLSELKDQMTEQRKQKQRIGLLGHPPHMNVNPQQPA

Inositol 1,4,5-triphosphate receptor 1 (ITPR1) (from UniProt P11881 1-2749)
binding: no binding

Source: publication PMC5243904
